The other results are listed elsewhere or left out. Single values are uncertain, as repeats are few or missing.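 Cells were imaged in 1,536-well plates, and nuclei stained with an antibody against cleaved PARP were counted against all DNA-stained nuclei to give the apoptosis fraction. Screening doses were chosen to leave most cells alive, and resting and induced cleaved-PARP levels differ strongly between cell lines.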
Experiments:
Test in all cases: cleaved PARP positive nuclei fraction relative to DMSO control; melanoma cells; higher = more apoptosis
Conditions in all cases: library dose: low library concentration; 72 h
[1] = system: MZ2-MEL
[2] = system: MeWo
[3] = system: RPMI7951
[4] = system: RVH-421
[5] = system: SkMel28
[6] = system: SkMel30
[7] = system: SkMel5
[8] = system: UACC257
[9] = system: UACC62

In the case of O=S(=O)(c1ccccc1)N(CC(F)(F)F)c1ccc(C(O)(C(F)(F)F)C(F)(F)F)cc1 + Cc1cc(SCc2sc(-c3ccc(C(F)(F)F)c(F)c3)nc2C)ccc1OCC(=O)O [GW0742] (first compound 1.4 µM, partner dose 2 µM), the “cleaved PARP positive nuclei fraction” value [1] is reported as 15.1%, the “cleaved PARP positive nuclei fraction” value [2] is reported as 26% and the “cleaved PARP positive nuclei fraction” value [3] is reported as 82.1%. For the same compound, the “cleaved PARP positive nuclei fraction” value [4] was 78.3%, the “cleaved PARP positive nuclei fraction” value [5] was 170% and the “cleaved PARP positive nuclei fraction” value [6] was 160%. For the same compound, the “cleaved PARP positive nuclei fraction” value [7] was 137%, the “cleaved PARP positive nuclei fraction” value [8] was 68.9% and the “cleaved PARP positive nuclei fraction” value [9] was 234%.
With C[C@@H]1CCN(C(=O)CC#N)C[C@@H]1N(C)c1ncnc2[nH]ccc12 + Cc1cc(SCc2sc(-c3ccc(C(F)(F)F)c(F)c3)nc2C)ccc1OCC(=O)O [GW0742] (first compound 1 µM, partner dose 2 µM) the “cleaved PARP positive nuclei fraction” value [1] was 140%, the “cleaved PARP positive nuclei fraction” value [2] was 107% and the “cleaved PARP positive nuclei fraction” value [3] was 82.7%. The “cleaved PARP positive nuclei fraction” value [4] was 56.2%, the “cleaved PARP positive nuclei fraction” value [5] was 71.4% and the “cleaved PARP positive nuclei fraction” value [6] was 12.6%. The “cleaved PARP positive nuclei fraction” value [7] was 52.1%, the “cleaved PARP positive nuclei fraction” value [8] was 82.9% and the “cleaved PARP positive nuclei fraction” value [9] was 54.4%.
Cc1cc(N2CCOCC2)cc2[nH]c(-c3c(NC[C@@H](O)c4cccc(Cl)c4)cc[nH]c3=O)nc12 + Cc1cc(SCc2sc(-c3ccc(C(F)(F)F)c(F)c3)nc2C)ccc1OCC(=O)O [GW0742] (first compound 0.2 µM, partner dose 2 µM) was tested, and the “cleaved PARP positive nuclei fraction” value [1] was 195%, the “cleaved PARP positive nuclei fraction” value [2] was 108% and the “cleaved PARP positive nuclei fraction” value [3] was 116%. The “cleaved PARP positive nuclei fraction” value [4] was 58.9%, the “cleaved PARP positive nuclei fraction” value [5] was 130% and the “cleaved PARP positive nuclei fraction” value [6] was 113%. For the same compound, the “cleaved PARP positive nuclei fraction” value [7] was 67.9%, the “cleaved PARP positive nuclei fraction” value [8] was 212% and the “cleaved PARP positive nuclei fraction” value [9] was 140%.
In the case of C[C@]12O[C@H](C[C@]1(O)CO)n1c3ccccc3c3c4c(c5c6ccccc6n2c5c31)CNC4=O [Lestaurtinib] + COC(=O)c1sccc1S(=O)(=O)Nc1ccc(Nc2ccccc2)cc1OC [GSK0660] (first compound 0.004 µM, partner dose 1 µM), the “cleaved PARP positive nuclei fraction” value [1] is reported as 137%, the “cleaved PARP positive nuclei fraction” value [2] is reported as 64.5% and the “cleaved PARP positive nuclei fraction” value [3] is reported as 28.3%. The “cleaved PARP positive nuclei fraction” value [4] was 73.4%, the “cleaved PARP positive nuclei fraction” value [5] was 97.1% and the “cleaved PARP positive nuclei fraction” value [6] was 504%. For the same compound, the “cleaved PARP positive nuclei fraction” value [7] was 69.4%, the “cleaved PARP positive nuclei fraction” value [8] was 83.2% and the “cleaved PARP positive nuclei fraction” value [9] was 51%.
For CCN(CC)CCCCNc1ncc2cc(-c3cc(OC)cc(OC)c3)c(NC(=O)NC(C)(C)C)nc2n1 + Cc1cc(SCc2sc(-c3ccc(C(F)(F)F)c(F)c3)nc2C)ccc1OCC(=O)O [GW0742] (first compound 0.1 µM, partner dose 2 µM), the “cleaved PARP positive nuclei fraction” value [1] was 57.9%, the “cleaved PARP positive nuclei fraction” value [2] was 26.2% and the “cleaved PARP positive nuclei fraction” value [3] was 226%. For the same compound, the “cleaved PARP positive nuclei fraction” value [4] was 62.3%, the “cleaved PARP positive nuclei fraction” value [5] was 127% and the “cleaved PARP positive nuclei fraction” value [6] was 375%. The “cleaved PARP positive nuclei fraction” value [7] was 57.3%, the “cleaved PARP positive nuclei fraction” value [8] was 113% and the “cleaved PARP positive nuclei fraction” value [9] was 89.2%.
For Cc1nc(Nc2ncc(C(=O)Nc3c(C)cccc3Cl)s2)cc(N2CCN(CCO)CC2)n1 [dasatanib] + Cc1cc(SCc2sc(-c3ccc(C(F)(F)F)c(F)c3)nc2C)ccc1OCC(=O)O [GW0742] (first compound 0.004 µM, partner dose 2 µM), the “cleaved PARP positive nuclei fraction” value [1] was 197%, the “cleaved PARP positive nuclei fraction” value [2] was 101% and the “cleaved PARP positive nuclei fraction” value [3] was 146%. For the same compound, the “cleaved PARP positive nuclei fraction” value [4] was 57.8%, the “cleaved PARP positive nuclei fraction” value [5] was 161% and the “cleaved PARP positive nuclei fraction” value [6] was 127%. The “cleaved PARP positive nuclei fraction” value [7] was 270%, the “cleaved PARP positive nuclei fraction” value [8] was 316% and the “cleaved PARP positive nuclei fraction” value [9] was 123%.

From the supplement of paper PMC4604168 (melanoma cell lines)
